In publication PMC11417401 one finds binding data, which are given here for one substance.

Protein sequences, listed by entry. Tags and fused reporters are not part of them.
UniProt Q7Z333: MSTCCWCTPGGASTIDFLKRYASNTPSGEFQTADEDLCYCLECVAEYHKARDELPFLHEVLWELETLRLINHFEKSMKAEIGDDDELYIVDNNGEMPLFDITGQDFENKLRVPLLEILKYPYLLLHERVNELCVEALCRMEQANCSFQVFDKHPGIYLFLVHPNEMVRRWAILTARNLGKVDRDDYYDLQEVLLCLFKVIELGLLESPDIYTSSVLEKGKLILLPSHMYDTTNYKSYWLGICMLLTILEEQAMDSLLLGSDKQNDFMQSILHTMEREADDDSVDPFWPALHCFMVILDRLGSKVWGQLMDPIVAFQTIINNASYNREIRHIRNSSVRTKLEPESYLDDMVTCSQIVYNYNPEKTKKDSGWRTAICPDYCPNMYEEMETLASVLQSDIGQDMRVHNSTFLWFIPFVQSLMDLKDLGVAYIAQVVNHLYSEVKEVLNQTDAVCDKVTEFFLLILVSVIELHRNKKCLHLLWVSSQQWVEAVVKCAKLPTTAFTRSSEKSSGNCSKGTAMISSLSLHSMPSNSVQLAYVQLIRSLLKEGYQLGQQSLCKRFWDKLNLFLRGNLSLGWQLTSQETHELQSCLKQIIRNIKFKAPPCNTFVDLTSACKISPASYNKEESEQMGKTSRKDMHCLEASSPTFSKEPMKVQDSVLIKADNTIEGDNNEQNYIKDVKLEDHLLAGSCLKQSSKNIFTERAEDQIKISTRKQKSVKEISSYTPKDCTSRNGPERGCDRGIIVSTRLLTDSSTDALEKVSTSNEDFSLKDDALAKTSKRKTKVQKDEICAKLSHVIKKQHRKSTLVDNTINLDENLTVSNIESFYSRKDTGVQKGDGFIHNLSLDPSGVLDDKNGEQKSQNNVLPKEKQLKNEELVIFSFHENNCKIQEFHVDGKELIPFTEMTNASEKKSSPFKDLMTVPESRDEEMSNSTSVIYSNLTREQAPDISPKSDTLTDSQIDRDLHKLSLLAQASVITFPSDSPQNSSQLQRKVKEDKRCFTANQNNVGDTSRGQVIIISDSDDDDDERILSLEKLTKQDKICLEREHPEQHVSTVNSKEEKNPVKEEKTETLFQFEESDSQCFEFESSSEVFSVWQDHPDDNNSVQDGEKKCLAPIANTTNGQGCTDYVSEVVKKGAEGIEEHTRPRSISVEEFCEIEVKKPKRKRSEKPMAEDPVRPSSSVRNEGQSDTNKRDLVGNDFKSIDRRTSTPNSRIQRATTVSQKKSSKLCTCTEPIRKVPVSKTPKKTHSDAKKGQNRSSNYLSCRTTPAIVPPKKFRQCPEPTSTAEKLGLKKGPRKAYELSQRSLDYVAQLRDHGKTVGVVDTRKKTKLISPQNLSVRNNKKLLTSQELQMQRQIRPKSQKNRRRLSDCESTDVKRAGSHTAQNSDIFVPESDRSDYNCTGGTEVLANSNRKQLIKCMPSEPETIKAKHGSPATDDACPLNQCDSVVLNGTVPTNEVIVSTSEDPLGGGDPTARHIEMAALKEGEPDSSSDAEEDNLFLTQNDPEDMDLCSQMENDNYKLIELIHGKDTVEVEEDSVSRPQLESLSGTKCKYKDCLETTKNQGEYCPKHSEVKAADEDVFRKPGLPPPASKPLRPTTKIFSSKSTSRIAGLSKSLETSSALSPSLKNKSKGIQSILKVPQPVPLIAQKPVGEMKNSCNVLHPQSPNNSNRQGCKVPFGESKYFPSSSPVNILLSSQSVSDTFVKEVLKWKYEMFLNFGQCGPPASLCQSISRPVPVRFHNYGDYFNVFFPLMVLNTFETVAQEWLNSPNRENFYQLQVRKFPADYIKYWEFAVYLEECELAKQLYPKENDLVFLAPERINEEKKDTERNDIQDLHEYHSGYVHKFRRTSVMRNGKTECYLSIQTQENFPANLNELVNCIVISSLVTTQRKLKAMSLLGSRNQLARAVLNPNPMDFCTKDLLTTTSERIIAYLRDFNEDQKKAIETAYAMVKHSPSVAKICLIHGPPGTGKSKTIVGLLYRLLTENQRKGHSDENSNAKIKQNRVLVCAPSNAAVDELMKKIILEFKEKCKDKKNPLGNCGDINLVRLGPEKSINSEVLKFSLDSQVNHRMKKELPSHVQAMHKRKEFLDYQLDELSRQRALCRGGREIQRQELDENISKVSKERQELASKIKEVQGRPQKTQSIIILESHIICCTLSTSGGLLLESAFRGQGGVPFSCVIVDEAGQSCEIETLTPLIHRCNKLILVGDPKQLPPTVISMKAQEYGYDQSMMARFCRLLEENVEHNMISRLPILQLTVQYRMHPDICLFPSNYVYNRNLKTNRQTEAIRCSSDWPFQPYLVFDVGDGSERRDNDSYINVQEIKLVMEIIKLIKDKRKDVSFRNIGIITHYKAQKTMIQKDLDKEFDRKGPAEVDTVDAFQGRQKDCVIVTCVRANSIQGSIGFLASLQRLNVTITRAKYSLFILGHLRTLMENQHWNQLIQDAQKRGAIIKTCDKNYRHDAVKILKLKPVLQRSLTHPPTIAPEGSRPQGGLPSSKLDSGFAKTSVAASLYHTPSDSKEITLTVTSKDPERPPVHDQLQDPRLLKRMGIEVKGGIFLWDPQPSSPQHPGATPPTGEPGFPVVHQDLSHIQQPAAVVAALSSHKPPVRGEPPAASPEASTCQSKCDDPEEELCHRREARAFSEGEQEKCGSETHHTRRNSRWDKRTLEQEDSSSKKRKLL
UniProt Q92841: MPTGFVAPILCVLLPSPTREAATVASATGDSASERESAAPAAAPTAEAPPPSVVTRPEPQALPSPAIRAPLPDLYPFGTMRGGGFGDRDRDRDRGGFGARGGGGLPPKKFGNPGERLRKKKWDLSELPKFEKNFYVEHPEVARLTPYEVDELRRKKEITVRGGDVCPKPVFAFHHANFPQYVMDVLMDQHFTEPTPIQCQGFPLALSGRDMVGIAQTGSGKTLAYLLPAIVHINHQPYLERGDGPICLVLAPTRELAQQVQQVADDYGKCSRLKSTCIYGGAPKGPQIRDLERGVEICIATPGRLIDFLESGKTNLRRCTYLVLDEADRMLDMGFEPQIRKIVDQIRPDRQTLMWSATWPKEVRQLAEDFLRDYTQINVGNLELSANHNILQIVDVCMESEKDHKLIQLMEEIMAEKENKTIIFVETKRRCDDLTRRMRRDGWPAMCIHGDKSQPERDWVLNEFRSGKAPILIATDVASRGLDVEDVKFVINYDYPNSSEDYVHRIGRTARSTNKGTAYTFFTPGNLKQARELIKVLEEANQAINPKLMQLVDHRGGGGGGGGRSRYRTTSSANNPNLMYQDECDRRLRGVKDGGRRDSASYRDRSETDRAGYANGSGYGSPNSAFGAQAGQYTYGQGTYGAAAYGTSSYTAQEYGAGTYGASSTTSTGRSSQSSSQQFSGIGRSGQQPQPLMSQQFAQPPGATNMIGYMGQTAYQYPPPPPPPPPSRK

The test concerns the target Senataxin (SETX) (human (endogenous in HEK293 and U2OS)) (UniProt Q7Z333). Briefly: co-IP; endogenous SETX immunoprecipitated with rabbit polyclonal anti-SETX antibody from HEK293 cell extracts (untreated/DMSO or 100 nM CPT for 1 h), extracts treated with benzonase; IP lysis buffer 50 mM Tris-HCl pH 7.4, 150 mM NaCl, 1% NP-40, 0.2% Triton X-100; 4°C; western blot for DDX17; rabbit IgG as control. (A western blot detects proteins with antibodies after separation by electrophoresis.)

These are yes or no findings as the source states them, for the method shown. Binding seen in cells or lysates may run through a third protein. Some entries that bind do so weakly or less than the wild type.

As for “DDX17 isoform p82 (from UniProt Q92841 1-729)”, the binding entry was “binds”.
